Test results from US20020037931A1, “Substituted nitrated catechols, their use in the treatment of some central and peripheral nervous system disorders and pharmaceutical compositions containing them” (priority 2000, published 2002).
Some results were stated once for a whole list of compounds, not compound by compound.

Tested on: COMT
Test: Ex vivo brain COMT activity after administration by gastric tube
Type: in vivo
Details: after oral administration, rat

## CCCC(=O)Oc1ccc(C(=O)c2ccccc2)c([N+](=O)[O-])c1OC(=O)CCC [Compound 20, Butyric Acid, 3-Benzoyl-6-butyryloxy-2-nitro-phenyl Ester]
  time to maximal inhibitory effect on brain COMT: ≤ 30 min
